Measurements from paper PMC12667515.
Results are given in words; binding and its absence hold for the method and conditions named. In cells and extracts the contact can be indirect.

Sequences of proteins named here, by UniProt entry; tags and fusion partners are left off.
UniProt P04867: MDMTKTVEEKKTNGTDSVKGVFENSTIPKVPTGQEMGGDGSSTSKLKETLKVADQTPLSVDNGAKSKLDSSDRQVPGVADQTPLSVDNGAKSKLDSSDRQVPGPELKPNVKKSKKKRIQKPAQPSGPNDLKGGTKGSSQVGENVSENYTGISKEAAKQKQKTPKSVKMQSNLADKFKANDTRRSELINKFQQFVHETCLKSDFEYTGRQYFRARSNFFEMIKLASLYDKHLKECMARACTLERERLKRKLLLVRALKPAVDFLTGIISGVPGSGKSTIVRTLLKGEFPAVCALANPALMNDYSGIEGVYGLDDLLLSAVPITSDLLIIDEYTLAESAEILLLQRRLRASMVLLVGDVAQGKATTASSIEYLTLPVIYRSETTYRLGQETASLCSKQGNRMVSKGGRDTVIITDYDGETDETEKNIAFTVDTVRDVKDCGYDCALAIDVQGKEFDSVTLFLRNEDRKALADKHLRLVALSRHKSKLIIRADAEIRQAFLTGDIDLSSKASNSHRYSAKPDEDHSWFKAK
UniProt P05804: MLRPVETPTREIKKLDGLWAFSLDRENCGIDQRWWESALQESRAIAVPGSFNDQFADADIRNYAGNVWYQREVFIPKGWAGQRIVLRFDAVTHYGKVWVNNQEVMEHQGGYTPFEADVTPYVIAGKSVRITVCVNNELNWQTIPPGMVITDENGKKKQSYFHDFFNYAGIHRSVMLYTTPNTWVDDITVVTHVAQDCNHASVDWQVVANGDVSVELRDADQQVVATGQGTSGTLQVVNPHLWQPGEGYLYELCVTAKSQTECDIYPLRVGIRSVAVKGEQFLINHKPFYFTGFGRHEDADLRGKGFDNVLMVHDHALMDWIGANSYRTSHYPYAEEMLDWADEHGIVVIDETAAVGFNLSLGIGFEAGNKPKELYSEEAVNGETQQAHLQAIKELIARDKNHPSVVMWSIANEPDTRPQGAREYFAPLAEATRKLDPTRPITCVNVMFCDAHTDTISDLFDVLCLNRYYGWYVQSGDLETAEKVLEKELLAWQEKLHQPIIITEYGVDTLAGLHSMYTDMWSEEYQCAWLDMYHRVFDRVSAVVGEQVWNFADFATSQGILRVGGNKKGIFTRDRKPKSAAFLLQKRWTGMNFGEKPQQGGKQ

Molecular target: cLuc–TGB1 (BSMV TGB1) (barley stripe mosaic virus) (UniProt P04867)
Test: split reporter; firefly luciferase complementation imaging (LCI, split-LUC); nLuc and cLuc fusions co-infiltrated into N. benthamiana leaves, 48 hpi, 1 mmol/L luciferin

## GUS–nLuc (from UniProt P05804 1-603) (enzyme)
  binding: no binding
